The exact form of at least one protein or probe is not confirmed. Results from cells or extracts need not show a direct contact.
Assays:
[1] = target: Mucin1 (MUC1) on A549 cells (UniProt P15941); assay: flow cytometry; settings: A549 cells, 40 pmol in 250 uL, no binding to MUC1-negative HepG2, PBS, 2x10^5 cells in 250 uL, 40 pmol DNA, 30 min with gentle shaking (temperature not stated), competition at 37 C, 3 PBS washes, protein on the cell surface, folded or branched DNA
CD16 on PBMC = assay: flow cytometry; settings: PBMC, 40 pmol in 250 uL, no binding to CD16-negative Jurkat, PBS, 2x10^5 cells in 250 uL, 40 pmol DNA, 30 min with gentle shaking (temperature not stated), competition at 37 C, 3 PBS washes, protein on the cell surface, folded or branched DNA

Sequences of proteins named here, by UniProt entry; tags and fusion partners are left off. A change or cut given only in a name is not applied to a line headed by its entry.
UniProt P15941: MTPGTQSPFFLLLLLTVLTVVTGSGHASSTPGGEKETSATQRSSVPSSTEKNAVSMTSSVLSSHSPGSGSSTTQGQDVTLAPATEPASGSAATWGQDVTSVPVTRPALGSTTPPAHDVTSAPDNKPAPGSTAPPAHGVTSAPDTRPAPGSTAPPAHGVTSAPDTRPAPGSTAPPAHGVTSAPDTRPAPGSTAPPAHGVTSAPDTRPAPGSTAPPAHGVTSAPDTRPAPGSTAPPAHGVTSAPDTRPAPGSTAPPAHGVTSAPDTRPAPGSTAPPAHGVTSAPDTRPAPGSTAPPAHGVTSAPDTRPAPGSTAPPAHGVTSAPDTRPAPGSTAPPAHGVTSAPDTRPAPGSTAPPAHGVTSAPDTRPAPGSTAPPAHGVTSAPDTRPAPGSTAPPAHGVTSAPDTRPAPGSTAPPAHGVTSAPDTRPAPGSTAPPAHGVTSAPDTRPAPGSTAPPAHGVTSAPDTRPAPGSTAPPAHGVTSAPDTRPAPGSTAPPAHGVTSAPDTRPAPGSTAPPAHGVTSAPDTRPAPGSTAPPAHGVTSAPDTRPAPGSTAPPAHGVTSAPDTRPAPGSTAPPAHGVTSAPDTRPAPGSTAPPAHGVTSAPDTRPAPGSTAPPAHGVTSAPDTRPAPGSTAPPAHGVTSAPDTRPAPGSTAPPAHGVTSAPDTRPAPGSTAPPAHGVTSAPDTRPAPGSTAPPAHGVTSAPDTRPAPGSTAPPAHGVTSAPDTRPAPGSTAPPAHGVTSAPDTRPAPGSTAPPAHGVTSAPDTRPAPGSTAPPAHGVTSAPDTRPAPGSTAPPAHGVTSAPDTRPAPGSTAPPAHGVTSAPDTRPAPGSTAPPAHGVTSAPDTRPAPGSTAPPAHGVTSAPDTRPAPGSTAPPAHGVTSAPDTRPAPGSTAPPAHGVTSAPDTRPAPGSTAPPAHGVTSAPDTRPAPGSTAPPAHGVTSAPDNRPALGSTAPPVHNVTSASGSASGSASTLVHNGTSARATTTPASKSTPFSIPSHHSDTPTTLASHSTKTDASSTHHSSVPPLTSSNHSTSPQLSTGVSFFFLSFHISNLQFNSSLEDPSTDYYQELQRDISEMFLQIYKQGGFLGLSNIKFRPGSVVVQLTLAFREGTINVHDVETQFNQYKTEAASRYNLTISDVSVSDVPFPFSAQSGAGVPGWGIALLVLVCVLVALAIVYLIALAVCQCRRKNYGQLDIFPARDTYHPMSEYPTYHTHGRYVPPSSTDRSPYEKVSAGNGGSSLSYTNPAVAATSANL

Sequence | binding result [1] | binding result (CD16 on PBMC)
AACCGCCCAAATCCCTAAGAGTCGGACTGCAACCTATGCTATCGTTGATGTCTGTCCAAGCAACACAGACACACTACACACGCACA [MUC1 aptamer] | binds | 
CCACTGCGGGGGTCTATACGTGAGGAAGAAGTGG [CD16 aptamer] |  | binds

From publication PMC6385031
